Data on one compound can be found in PubChem BioAssay AID1645882 (National Center for Advancing Translational Sciences (NCATS), 2021).

The chains behind the UniProt entries cited, without tags or fusion partners. Where a name states a change or a piece, a line headed by the entry shows the natural chain unless it says otherwise.
UniProt O95398: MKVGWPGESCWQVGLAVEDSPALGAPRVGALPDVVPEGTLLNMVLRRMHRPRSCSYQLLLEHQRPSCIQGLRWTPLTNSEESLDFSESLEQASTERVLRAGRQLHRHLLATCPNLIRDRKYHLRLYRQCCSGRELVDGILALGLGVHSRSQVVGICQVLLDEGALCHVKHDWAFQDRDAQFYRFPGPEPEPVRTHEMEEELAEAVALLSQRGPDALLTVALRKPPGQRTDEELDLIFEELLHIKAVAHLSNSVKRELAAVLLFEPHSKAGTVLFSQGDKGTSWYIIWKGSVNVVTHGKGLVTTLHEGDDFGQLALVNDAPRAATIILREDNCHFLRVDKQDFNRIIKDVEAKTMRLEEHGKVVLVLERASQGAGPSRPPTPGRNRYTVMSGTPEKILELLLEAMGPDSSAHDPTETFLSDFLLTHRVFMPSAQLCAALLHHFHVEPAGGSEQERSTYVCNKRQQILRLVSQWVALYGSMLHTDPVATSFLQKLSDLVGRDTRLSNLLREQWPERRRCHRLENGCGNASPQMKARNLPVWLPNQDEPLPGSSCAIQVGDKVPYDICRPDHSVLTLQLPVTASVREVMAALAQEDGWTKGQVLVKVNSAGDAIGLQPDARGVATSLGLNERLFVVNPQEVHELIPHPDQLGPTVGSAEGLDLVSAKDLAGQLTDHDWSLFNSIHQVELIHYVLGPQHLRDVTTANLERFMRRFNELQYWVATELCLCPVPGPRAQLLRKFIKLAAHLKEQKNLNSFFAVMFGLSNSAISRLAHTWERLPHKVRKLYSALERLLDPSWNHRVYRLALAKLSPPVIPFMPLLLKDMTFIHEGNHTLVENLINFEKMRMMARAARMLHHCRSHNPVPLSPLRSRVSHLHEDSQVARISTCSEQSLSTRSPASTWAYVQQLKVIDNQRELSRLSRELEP

Most of the hits are listed elsewhere, so they are rarer here than in the full data. Records with an inconclusive call do not appear. Calls of active or inactive are those of the source. Calls follow the shape of the dose curve; as a rule, active = well fitted inhibition curve with a large enough effect; inconclusive = small, poorly fitted or top-dose-only effect; inactive = no such curve, though single readings can be large or run the other way.

The target of the assay is Rap guanine nucleotide exchange factor 3 (Homo sapiens) (UniProt O95398). In words: Validation qHTS for antagonist of cAMP-regulated guanine nucleotide exchange factor 3 (EPAC1).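 Also: plate controls were DMSO for no effect and ATA control for full effect; nearly all actives have a fitted effect of over 75% in size.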 The conditions noted are these: EPAC1 Rap1B-BODIPY-GDP exchange, fluorescence; at 150 µM (top of the series). An excerpt:
Assay Provider (PI): Xiaodong Cheng Ph.D.
The University of Texas Medical Branch, […], TX
In multi-cellular eukaryotic organisms, the effects of cAMP are transduced by two ubiquitously-expressed intracellular cAMP receptors, the classic protein kinase A/cAMP-dependent protein kinase (PKA/cAPK) and the more recently discovered exchange protein directly activated by cAMP/cAMP-regulated guanine nucleotide exchange factor (EPAC/cAMP-GEF). Both PKA and EPAC are ubiquitously expressed in all tissues, and an increase in intracellular cAMP levels will lead to the activation of both PKA and EPAC. […]
This qHTS will be used to screen the Molecular Libraries Small Molecule Repository (MLSMR) as a concentration-titration series using the NCGC unique quantitative screening (qHTS) platform to find activators for EPAC1. […] Activators are identified by monitoring the change in fluorescence signal as the exchanged free BODIPY-GDP has a reduced fluorescence compared to Rap1-bound BODIPY-GDP. […]
Briefly, three uL of reagents (100 nM EPAC1, 250 nM RAP1B-BODIPY-GDP, 50 uM GDP) were dispensed into a 1536-well Greiner black solid-bottom medium binding assay plate. […] The assay plates were read at 5 minute intervals for 30 minutes in the ViewLux plate reader using 480nm excitation and 540nm emission filters. […]
Turning to `CC(C)(C)c1ccc(O)cc1`, the activity change, negative = inhibition was inactive: 17.6%.
